The experiment has as its target T1, αB-crystallin (human (endogenous in ARPE-19)) (UniProt P02511).
T1 sequence: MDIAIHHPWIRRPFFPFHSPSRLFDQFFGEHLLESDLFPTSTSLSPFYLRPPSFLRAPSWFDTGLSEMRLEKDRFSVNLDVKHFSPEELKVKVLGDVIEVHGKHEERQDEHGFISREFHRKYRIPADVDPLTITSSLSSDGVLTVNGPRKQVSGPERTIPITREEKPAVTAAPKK
Put plainly: co-IP; endogenous proteins in whole extracts of ARPE-19 cells, untreated control (0 h), with a time course of 2 mM MGO where the binding was only reduced or increased; antibody and protein A-agarose, western blot; precipitating antibody of each panel not told. (A western blot detects proteins with antibodies after separation by electrophoresis.)

Amino acid sequences for entries named in this document (tags omitted). A change or cut given only in a name is not applied to a line headed by its entry.
UniProt P55211: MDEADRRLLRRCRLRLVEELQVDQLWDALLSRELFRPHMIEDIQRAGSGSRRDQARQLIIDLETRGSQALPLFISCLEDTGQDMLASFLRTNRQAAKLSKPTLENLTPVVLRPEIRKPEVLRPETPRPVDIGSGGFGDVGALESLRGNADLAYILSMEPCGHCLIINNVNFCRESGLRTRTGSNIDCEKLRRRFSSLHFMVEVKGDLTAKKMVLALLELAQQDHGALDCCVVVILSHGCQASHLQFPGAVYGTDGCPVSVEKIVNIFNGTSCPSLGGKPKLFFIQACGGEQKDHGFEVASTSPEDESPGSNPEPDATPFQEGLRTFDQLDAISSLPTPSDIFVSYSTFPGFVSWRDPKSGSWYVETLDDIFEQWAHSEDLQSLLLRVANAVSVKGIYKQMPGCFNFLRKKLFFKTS

These are yes or no findings as the source states them, for the method shown. Binding seen in cells or lysates may run through a third protein. A result given as binding can be weak or reduced; the word gives no strength.

Regarding “caspase-9 (from UniProt P55211) (enzyme)”, the binding entry was “binds”.

The record behind these values is publication PMC3458930.
